Results are given in words; binding and its absence hold for the method and conditions named. Some binding calls cover weakened binding; strength is not graded here.
Legend:
[1] = target: T1, canine CD20 on cells (HEK293, MDCK II, CLBL-1 or native B cells) (canine) (UniProt Q3C2E2); assay: flow cytometry, canine CD20 MDCK cells, 1 µg/ml, PE anti-human Fc; mean intensities of FIG. 13C
T1 sequence: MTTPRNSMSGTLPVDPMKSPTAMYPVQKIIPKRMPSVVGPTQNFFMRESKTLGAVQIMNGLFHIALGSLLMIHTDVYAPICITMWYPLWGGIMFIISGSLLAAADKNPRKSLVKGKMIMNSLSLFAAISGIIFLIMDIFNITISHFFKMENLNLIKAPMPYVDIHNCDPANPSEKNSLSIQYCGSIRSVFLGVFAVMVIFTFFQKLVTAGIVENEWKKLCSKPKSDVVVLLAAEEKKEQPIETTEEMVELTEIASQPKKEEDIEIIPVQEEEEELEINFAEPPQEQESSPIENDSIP

[2] = target: T1, canine CD20 on cells (HEK293, MDCK II, CLBL-1 or native B cells) (canine); assay: flow cytometry, canine CD20 MDCK cells, 1 µg/ml, PE anti-human Fc
[3] = target: T1, canine CD20 on cells (HEK293, MDCK II, CLBL-1 or native B cells) (canine); assay: flow cytometry, canine CD20-overexpressing MDCK cells, 1 µg/ml

Measured: binding

B1: PMX172VH/PMX272VH/PMX172VL (bispecific antibody, V domains shown)
VH 1: EVQLVESGGDLVKPGGSLRLSCVASGFTFSSYHMSWVRQAPGKGLQWVAYSNSGGSRTSYADAVKGRFTISRDNAKNTLYLQMNSLRAEDTAVYYCASEGGGGRYGYKDYGMDYWGHGTSLFVSS
VH 2: EVQLVESGGDLVKPGGSLRLSCVASGFTFSRYYMNWVRQAPGKGLQWVAYIDSDGSSTSYADAVKGRFTISRDNAKNTLYLQMNSLRADDTAVYYCTSFDYWGQGTLVTVSS
VL: SYVLTQLPSKNVTLKQPAHITCGGDNIGSKSVHWYQQKLGQAPVLIIYYDSSRPTGIPERFSGANSGNTATLTISGALAEDEADYYCQVWDSSAKAWVFGEGTQLTVL
binds: [1] | [2] | [3]

B2: PMX172VH/PMX273VH/PMX172VL (bispecific antibody, V domains shown)
VH 1: EVQLVESGGDLVKPGGSLRLSCVASGFTFSSYHMSWVRQAPGKGLQWVAYSNSGGSRTSYADAVKGRFTISRDNAKNTLYLQMNSLRAEDTAVYYCASEGGGGRYGYKDYGMDYWGHGTSLFVSS
VH 2: EMQLVESGGDLVKPGGSLRLSCVASGFTFSRYHMSWVRQAPGKGLQWVAYIDSDGSPTNYADAVKGRFTISRDNAKNTLYLQMNSLRAEDTAVYYCTTYDQWGQGTLVTVSS
VL: SYVLTQLPSKNVTLKQPAHITCGGDNIGSKSVHWYQQKLGQAPVLIIYYDSSRPTGIPERFSGANSGNTATLTISGALAEDEADYYCQVWDSSAKAWVFGEGTQLTVL
binds: [1] | [2] | [3]
